# Source: PubChem BioAssay AID2551 (National Center for Advancing Translational Sciences (NCATS), 2010)
# Protein sequences, listed by entry. Tags and fused reporters are not part of them. Lines headed by an entry give the natural chain unless they say otherwise; changes in a name come on top.
# UniProt P51450: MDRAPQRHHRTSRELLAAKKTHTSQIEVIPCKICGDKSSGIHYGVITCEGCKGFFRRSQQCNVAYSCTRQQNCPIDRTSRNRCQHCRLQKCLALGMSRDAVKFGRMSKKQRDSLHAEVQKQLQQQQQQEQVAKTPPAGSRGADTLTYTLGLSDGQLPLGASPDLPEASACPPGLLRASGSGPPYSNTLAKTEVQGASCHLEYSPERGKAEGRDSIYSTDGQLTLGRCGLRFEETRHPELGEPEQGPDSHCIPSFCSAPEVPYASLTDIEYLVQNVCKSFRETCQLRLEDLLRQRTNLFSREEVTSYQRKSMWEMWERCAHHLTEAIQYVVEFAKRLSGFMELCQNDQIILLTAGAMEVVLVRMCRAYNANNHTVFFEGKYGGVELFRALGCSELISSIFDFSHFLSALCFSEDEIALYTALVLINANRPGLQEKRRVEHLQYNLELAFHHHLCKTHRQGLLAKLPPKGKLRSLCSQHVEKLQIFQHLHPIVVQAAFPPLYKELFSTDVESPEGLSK
# About 17,000 (5.5%) of roughly 310,000 compounds were called active. Inconclusive results, whose numbers are uncertain, are shown with a selection of clear calls. The call rests on the fitted dose curve; in most records, active means well fitted inhibition curve with a large enough effect; inconclusive means small, poorly fitted or top-dose-only effect, or effect the other way; inactive means no such curve, though single readings can be large or run the other way. Where the call is inconclusive, the potency comes from a doubtful curve fit.
# Molecular target: Nuclear receptor ROR-gamma (Mus musculus) (UniProt P51450)
# Experiment: qHTS for inhibitors of ROR gamma transcriptional activity; further: nearly all actives have a fitted effect of over 60% in size
# Conditions: Drosophila S2 Gal4-RORgamma UAS-luciferase reporter, 20 h; activity change, negative = inhibition: at 53.6 µM (top of the series)
# Summary of the method: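 In this cell-based reporter format, copper sulfate (700 uM final) drives Gal4–ROR gamma fusion expression from a metallothionein promoter in Drosophila Schneider cells; compounds preincubated 1 hr, reporter read after 20 hr at ambient temperature.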
# On the % scale 0 is the no-effect control and ±100 the full control effect; potency means the concentration at half of the fitted maximal effect.
SMILES,Potency,"activity change, negative = inhibition"
NS(=O)(=O)c1ccc(NC(=S)N2CCN(c3cccc(Cl)c3)CC2)cc1,"inconclusive: 10 µM [activator, single point]",–
C/C(CC(=O)Nc1cc(Cl)ccc1Cl)=N\NC(=O)c1ccco1,"inconclusive: 35.5 µM [inhibitor, single point]",–
Cc1ccc2c(c1)NCC(C(=O)NC1CCCCC1)O2 (stereo not drawn),"inconclusive: 31.6 µM [activator, single point]",–
COc1ccc(-c2nnc3ccc(SCC(=O)N4CCCCC4)nn23)cc1OC,inactive,–
S=C(NC1CCCCC1)NN1CCOCC1,active: 8.91 µM,–
COCCn1c(=O)c(-c2ccccc2)nc2cnc(Oc3ccc(OC)cc3)nc21,"inconclusive: 35.5 µM [activator, single point]",–
COc1cc(CNC(=O)c2cccc(COc3ccc(Cl)cc3)c2)cc(OC)c1,"inconclusive: 35.5 µM [activator, single point]",–
COC(=O)C(c1cc(OC)c(O)c(OC)c1)(N1CCNC(C)C1)C(F)(F)F (stereo not drawn),"inconclusive: 0.178 µM [activator, single point]",–
CCOC(=O)Nc1ccc(NS(=O)(=O)c2ccc(C)cc2)cc1,"inconclusive: 35.5 µM [activator, single point]",–
CCOC(=O)c1sc(NC(=O)Cc2c(F)cccc2Cl)nc1C,"inconclusive: 14.1 µM [activator, single point]",–
O=S(=O)(c1ccc(-c2ccccc2)cc1)N1CCCCC1,"inconclusive: 35.5 µM [activator, single point]",–
CCOC(=O)c1cc(C)n(-c2ccc(OC)c(OC)c2)c1C,inactive,–
Cn1ccnc1SCC(=O)Nc1cccc([N+](=O)[O-])c1,"inconclusive: 35.5 µM [inhibitor, single point]",–
CCN1CCN(Cc2ccc(NC(=O)c3cc(NC(=O)c4cnnc5ccccc45)cc(OC)c3)cc2C(F)(F)F)CC1,"inconclusive: 35.5 µM [inhibitor, single point]",–
Nc1c(N2CCCC2)cc(Cl)c2nonc12,"inconclusive: 15.8 µM [inhibitor, single point]",–
COc1ccc(/C=C/C(=O)NCCc2c[nH]c3ccccc23)cc1OC,"inconclusive: 10 µM [activator, partial curve, poor fit]",–
COC(=O)c1ccccc1NC(=O)C1CC(=O)N(c2ccc(F)cc2)C1 (stereo not drawn),inactive,–
CCOC(=O)Cc1csc(NC(=O)c2cccs2)n1,inactive,–
O=C(O)c1cccc(NC(=S)N/N=C/c2cccnc2)c1,"inconclusive: 11.2 µM [inhibitor, single point]",–
CNC(=O)c1cccc2nc3ccccc3nc12,"inconclusive: 11.2 µM [inhibitor, partial curve]",–
CSCC[C@H](NC(=O)[C@H](CCCNC(=N)N)NC(=O)[C@H](Cc1ccc(O)cc1)NC(=O)[C@@H]1CCCN1C(=O)CNC(=O)[C@H](CCC(=O)O)NC(=O)[C@H](CC(=O)O)NC(=O)[C@H](CCCCN)NC(=O)[C@H](CCCCN)NC(=O)[C@H](CCC(=O)O)NC(=O)[C@H](C)N)C(=O)N[C@@H](CCC(=O)O)C(=O)N[C@@H](Cc1cnc[nH]1)C(=O)N[C@@H](Cc1ccccc1)C(=O)N[C@@H](CCCNC(=N)N)C(=O)N[C@@H](Cc1c[nH]c2ccccc12)C(=O)NCC(=O)N[C@@H](CO)C(=O)N1CCC[C@H]1C(=O)N1CCC[C@H]1C(=O)N[C@@H](CCCCN)C(=O)N[C@@H](CC(=O)O)C(=O)O,inactive,–
Cc1cc(N)c(NC2=CC(=O)CC(C)(C)C2)cc1C,"inconclusive: 35.5 µM [inhibitor, single point]",–
CC1CC(C)(C)NC(=S)N1CCC(=O)N1CCN(Cc2ccccc2)CC1 (stereo not drawn),"inconclusive: 11.2 µM [inhibitor, single point]",–

SMILES,Potency,"activity change, negative = inhibition"
Cc1c(NC(=O)CSc2nnnn2-c2ccc(F)cc2)c(=O)n(-c2ccccc2)n1C,"inconclusive: 22.4 µM [activator, single point]",–
Fc1ccc(-n2c(-c3ccc4c(c3)OCO4)n[nH]c2=S)cc1Cl,"inconclusive: 17.8 µM [inhibitor, single point]",–
Clc1ccc(CO/N=C/c2c(-c3ccccc3)nc3n2CCS3)c(Cl)c1,inactive,–
COc1ccc(/C=N/NC(=O)c2nc(Cl)c(Cl)c(N)c2Cl)cc1COc1ccc(F)cc1F,"inconclusive: 28.2 µM [inhibitor, single point]",–
N#C/C(=C/c1ccc2c(c1)OCO2)C(=O)NCCc1c[nH]c2ccccc12,inactive,–
COc1cccc(C(C2=C(O)CC(C)(C)CC2=O)C2C(=O)CC(C)(C)CC2=O)c1 (stereo not drawn),"inconclusive: 35.5 µM [inhibitor, single point]",–
COc1ccc(Cn2nnnc2C(c2cc3ccc(OC)cc3[nH]c2=O)N2CCC(C)CC2)cc1 (stereo not drawn),"inconclusive: 3.98 µM [activator, full curve, poor fit]",–
Cc1cc(OCCCn2ccnc2)cc(C)c1Cl,"inconclusive: 22.4 µM [inhibitor, single point]",–
c1ccc2nc(N3CCN(Cc4ccc5c(c4)OCO5)CC3)cnc2c1,"inconclusive: 11.2 µM [activator, partial curve]",–
S=C(NN=C1C2CC3CC(C2)CC1C3)Nc1ccccc1,"inconclusive: 14.1 µM [inhibitor, partial curve, poor fit]",–
COc1cc(OC)cc(C(=O)Nc2ccc(-n3cnnn3)c(C)c2)c1,"inconclusive: 11.2 µM [activator, partial curve]",–
CN1CCN(CCCNC(=O)c2ccc(/C=C3\Sc4ccccc4N(Cc4ccc(F)cc4)C3=O)cc2)CC1,"inconclusive: 35.5 µM [inhibitor, single point]",–
Cc1ccc(NNC(=O)C(O)(c2cccc(C(F)(F)F)c2)c2cccc(C(F)(F)F)c2)cc1,"inconclusive: 25.1 µM [activator, single point]",–
CC1CCc2sc(C(=O)Nc3nnc(SCc4ccc(F)cc4)s3)cc2C1 (stereo not drawn),"inconclusive: 11.2 µM [inhibitor, single point]",–
Cc1cccc(C(=O)N2CCc3cc(-c4nc(NC(=O)Cn5nnc6ccccc6c5=O)sc4C)ccc32)c1,–,inactive: 28.4% [at 10 µM]
COCCCNC(=S)N1CCN(c2ccc([N+](=O)[O-])cc2)CC1,"inconclusive: 17.8 µM [activator, single point]",–
O=C(CSc1cccc2cccnc12)N1CCCC1,–,inactive: 5.06% [at 0.365 µM]
CC(=O)c1ccc(Nc2nc(N3CCOCC3)nc(N3CCOCC3)n2)cc1,"inconclusive: 17.8 µM [activator, partial curve]",–
Cc1nn(C)c(C)c1CN(Cc1nc(-c2cc(F)ccc2F)oc1C)C1CC1,active: 28.2 µM,–
Oc1ccc(/C=N/n2cc(-c3ccccc3)[nH]c2=S)cc1,active: 7.94 µM,–
CCC(C)n1c(S(=O)(=O)O)nc2ccccc21 (stereo not drawn),inactive,–
Cc1noc(C)c1CSCC(=O)OCC(=O)Nc1sccc1C#N,inactive,–
Cc1ccc(OCCn2c(=S)[nH]c3c(N)ncnc32)cc1,"inconclusive: 35.5 µM [inhibitor, single point]",–

# As entered above:
# In Potency, COc1ccc(/C=N/NC(=O)c2nc(Cl)c(Cl)c(N)c2Cl)cc1COc1ccc(F)cc1F reads inconclusive: 28.2 µM [inhibitor, single point]
# In Potency, COCCCNC(=S)N1CCN(c2ccc([N+](=O)[O-])cc2)CC1 reads inconclusive: 17.8 µM [activator, single point]
# In Potency, COCCn1c(=O)c(-c2ccccc2)nc2cnc(Oc3ccc(OC)cc3)nc21 reads inconclusive: 35.5 µM [activator, single point]
# In Potency, C/C(CC(=O)Nc1cc(Cl)ccc1Cl)=N\NC(=O)c1ccco1 reads inconclusive: 35.5 µM [inhibitor, single point]
# In Potency, Nc1c(N2CCCC2)cc(Cl)c2nonc12 reads inconclusive: 15.8 µM [inhibitor, single point]

# Following part:

SMILES,Potency,"activity change, negative = inhibition"
CCNc1nc(NCC)nc(N(C)N)n1,active: 7.08 µM,–
S=c1[nH]nc(CSCc2ccccc2Cl)n1C1CCCCC1,active: 0.501 µM,–
O=C(CCl)Nc1nc(-c2ccco2)c(-c2ccco2)s1,"inconclusive: 11.2 µM [inhibitor, partial curve]",–
C=CCn1c(SCC(=O)Nc2ccc3c(c2)OCO3)nnc1-c1cc(Br)ccc1O,"inconclusive: 14.1 µM [inhibitor, single point]",–
O=C(NNc1ccc(Cl)cc1)c1c(F)cccc1Cl,inactive,–
CN(C)c1ccc(-c2ccncc2)cc1,inactive,–
CCn1c(N2CCN(CC(=O)c3c[nH]c4ccccc34)CC2)nc2c1c(=O)[nH]c(=O)n2C,"inconclusive: 2.24 µM [activator, full curve]",–
CC(O)CN(C)C (stereo not drawn),inactive,–
CCn1c2ccccc2c2nnc(SCCN3CCCCC3)nc21,–,inactive: -3.13% [at 1.91 µM]
COC(=O)c1ccccc1NC(=O)c1cccs1,inactive,–
CC1(C)Cc2ccccc2-c2nc(NCCO)n(-c3ccccc3)c(=O)c21,inactive,–
CCOC(=O)N1CCC(NC(=O)c2ccc3c(c2)N=C(C)c2c(C)ccc(C)c2S3)CC1,"inconclusive: 6.31 µM [activator, single point]",–
CC(C)c1ccc(/C=C/C(=O)NC2=NCCS2)cc1,active: 8.91 µM,–
O=C(NC1CC1)C1=NOC(CNc2ncc(C(F)(F)F)cc2Cl)C1 (stereo not drawn),"inconclusive: 12.6 µM [activator, single point]",–
O=Cc1ccc(-c2ccc(C(=O)O)cc2)o1,inactive,–
CCOc1ccc(-c2n[nH]c(C)c2-c2ccccn2)c(O)c1,active: 17.8 µM,–
COc1ccc2nc(NC(=O)CN3CCOCC3)sc2c1,"inconclusive: 10 µM [activator, partial curve, poor fit]",–
CN(Cc1cc([N+](=O)[O-])c2cccnc2c1O)C1CCCCC1,active: 3.98 µM,–
O=S(=O)(NCc1ccccc1)c1ccc(NC(=S)NCc2ccco2)cc1,"inconclusive: 1.26 µM [activator, single point]",–
CC(=O)Nc1ccc(/C=N/Nc2nc3ccccc3[nH]2)cc1,"inconclusive: 2.82 µM [activator, single point]",–
O=[N+]([O-])c1cc(O)c2ncccc2c1,active: 0.891 µM,–
CC(C)Cc1cc(C(=O)NCCc2ccccc2)no1,"inconclusive: 0.0056 µM [inhibitor, full curve]",–
